{
  "source": "patent US20260256771A1",
  "about": "“GALUNISERTIB FOR USE IN THE TREATMENT OF ANDROGENIC ALOPECIA” (SAÚDE VIÁVEL, S.A., priority 2022, published 2026)",
  "key": {"[1]": {"test_system": "C57BL/6 depilated male mice", "assay": "Histology (hematoxylin-eosin) of dorsal skin: number of hair follicles", "format": "in vivo, mouse", "protocol": "(§1) FIG. 8. Galunisertib increases anagenic hair follicle growth. a) Hematoxilin-eosin staining of transversal paraffin sections of the dorsal skin of mice treated with vehicle (control), galunisertib (10 μM and 100 μM) or minoxidil at days 0, 5, 7, 14, 16 and 18 of treatment. Scale bar, 500 μm. b) Number of hair follicles per field view and c) number of hair follicles per field view in the subcutaneous layer at different timepoints along the experiment. d) Ki67 immunostaining of longitudinal paraffin sections of the dorsal skin of mice treated with vehicle (control), galunisertib (10 μM and 100 μM) or minoxidil at days 5, 7 and 14. Scale bar, 200 μm. e) Number of Ki67-positive cells in the hair bulb at days 5, 7 and 14. N≥3 animals per timepoint per condition were analyzed, and N≥4 field views were quantified per animal. Values are mean±SD. *p<0.05; **p<0.01 by Student's t-test.\nFor histology and immunohistochemistry, dorsal skin from the depilated region is collected from mice at different timepoints across the experiment (days 0, 5, 7, 14 and 18) and fixed in 10% buffered formalin, imbedded in paraffin and sectioned along the transversal and longitudinal plan of the hair follicles (3 μm sections). Standard protocol is used for hematoxylin and eosin staining. For immunohistochemistry, slides are deparaffinized, then antigen retrieval is performed using HistoVT One (#06380-05, Nacalai Tesque Inc.) for 40 min in a steamer, following 20 min of cooling at room temperature (RT). After washing with TBS-0.01% Tween (TBS-T), peroxidase is blocked using Bloxall (#SP-6000, Vector Laboratories Inc.) for 10 min. Slides are then washed with TBS-T, and blocked using 2.5% Normal Horse Serum (#MP7500, Impress universal kit, Vector Laboratories Inc.) for 20 min. Following this, slides are incubated with rabbit anti-Ki67 antibody (D3B5) in 0.25% Normal Horse Serum overnight at 4° C. Next day, after thoroughly washing with TBS-T, the slides are incubated with a secondary anti-mouse/anti-rabbit antibody (#MP7500, Impress universal kit, Vector Laboratories Inc.) for 45 min RT. Impact DAB (#SK-4105, Vector Laboratories Inc.) are used to develop the slides, followed by dehydration and mounting with Entellan (#1.07961.0100, Millipore) following standard procedures."}, "[2]": {"test_system": "Ki67 proliferation marker", "assay": "Ki67 immunohistochemistry of mouse dorsal skin (hair germ)", "format": "in vivo", "settings": "days 5, 7 and 14 post-treatment; vs vehicle treatment", "protocol": "as §1\nFor histology and immunohistochemistry, dorsal skin from the depilated region is collected from mice at different timepoints across the experiment (days 0, 5, 7, 14 and 18) and fixed in 10% buffered formalin, imbedded in paraffin and sectioned along the transversal and longitudinal plan of the hair follicles (3 μm sections). Standard protocol is used for hematoxylin and eosin staining. […]"}, "[3]": {"test_system": "C57BL/6 depilated male mice", "assay": "Hair growth in depilated mice under topical treatment (photographs, trichoscopy)", "format": "in vivo, mouse", "protocol": "FIG. 7. Galunisertib induces hair growth in C57BL/6J mice. a) Mouse treatment scheme. 7-week-old C57BL/6J mice were depilated (day −2) and 2 days later (day 0) started being treated with vehicle (70% ethanol), galunisertib (10 μM and 100 μM) or 3% minoxidil for 21 non-continuous days. b) Photographs of C57BL/6J mice treated with vehicle (control), 10 μM and 100 μM galunisertib or 3% minoxidil at days 0, 5, 9 and 14. c) Magnified photographs of the depilation site of C57BL/6J mice treated with vehicle (Ctr), galunisertib (10 and 100 μM) or minoxidil at days 7 and 9. d) Trichoscopy images of depilated regions at days 8 and 10. N≥3 animals were used per timepoint per condition for image and skin collection; e) Mass spectrometry analysis of skin biopsies retrieved at day 14 from animals treated with 10 μM and 100 μM galunisertib. Values are mean±SD of n=3 animals per condition.\nMice are six-week-old male C57BL/6J mice purchased from the Charles River Laboratories. The animals are housed and allowed to adapt to the laboratory environment for one week before experiments start. Animals are maintained under a 12 h light/dark cycle and fed with regular rodent's chow and tap water ad libitum, at the i3S animal facility.\nFor depilation and treatments in order to synchronize hair growth cycle in mice, anagen is induced by depilation. […]"}},
  "note": "At least one structure is not confirmed: it was looked up by name or label, or the drawing left a doubt.",
  "data": [
    {"smiles": "Nc1cc(N2CCCCC2)nc(N)[n+]1[O-]", "note": "[Minoxidil]", "values": [
      {"measurement": "number of HFs within the subcutaneous layer (anagenic HFs)", "setting": "[1]; day 5, vs vehicle", "result": "increased number of HFs"},
      {"measurement": "catagen onset in mice", "setting": "[1]; similar timing in all conditions", "result": "not to be delayed"},
      {"measurement": "number of HF (per field view)", "setting": "[1]; transversal HF sections, day 7 to day 14, vs control vehicle treatment", "result": "significant increase in the number of HF"},
      {"measurement": "persistence of the increased number of anagenic HFs", "setting": "[1]; until day 14", "result": "not"},
      {"measurement": "number of Ki67-positive cells in the hair germ", "setting": "[2]", "result": "increased number of Ki67-positive cells"},
      {"measurement": "hair growth in magnified photographs of depilated areas", "setting": "[3]; topical 3% minoxidil, day 9, vs vehicle control, ranked after 10 μM galunisertib", "result": "marked improvement of hair growth"},
      {"measurement": "macroscopic assessment of hair growth: darkness of depilated area (hair density)", "setting": "[3]; topical, galunisertib 10 and 100 μM, minoxidil 3%, vs. control mice, day 5 to day 14", "result": "consistently darker"}
    ]}
  ]
}
